Data reported in patent US20090054500.
For at least one entry, the source does not settle the construct or the ends of the probe. For part of these data: A negative result means that nothing was seen under these conditions. For part of these data: A weaker result is weaker than the reference pair of the same experiment.

Chains of the proteins cited; added tags and fusions are not shown. Lines headed by an entry give the natural chain unless they say otherwise; changes in a name come on top.
UniProt Q08369: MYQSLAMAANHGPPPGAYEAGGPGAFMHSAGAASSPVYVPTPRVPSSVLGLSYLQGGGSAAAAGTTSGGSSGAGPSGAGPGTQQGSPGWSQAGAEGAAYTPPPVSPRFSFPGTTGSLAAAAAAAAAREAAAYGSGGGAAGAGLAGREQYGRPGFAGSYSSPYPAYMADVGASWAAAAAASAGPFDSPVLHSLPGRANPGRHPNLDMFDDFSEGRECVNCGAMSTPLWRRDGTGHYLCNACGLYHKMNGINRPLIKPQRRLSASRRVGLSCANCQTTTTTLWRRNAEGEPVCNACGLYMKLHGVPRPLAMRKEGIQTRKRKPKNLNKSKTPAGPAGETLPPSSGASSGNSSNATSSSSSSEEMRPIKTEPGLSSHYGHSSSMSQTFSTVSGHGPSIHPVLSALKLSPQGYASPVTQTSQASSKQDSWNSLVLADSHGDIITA

Key:
[1] = target: GATA4 (UniProt Q08369); assay: competition with a labelled probe; conditions: unlabeled mutant oligo fails to compete for GATA4 binding in EMSA; protein translated in vitro; protein details: in vitro transcription/translation kit (Promega); variant of ANF promoter GATA4 site
[2] = tested on: GATA4 + CHF1/Hey2; assay: EMSA; conditions: CHF1/Hey2 added to GATA4 inhibits GATA4 complex formation dose-dependently; effect relatively weak (p54); protein translated in vitro; protein details: in vitro transcription/translation kit (Promega); label: labeled (standard methods)
[3] = target: GATA4 (UniProt Q08369); assay: EMSA; conditions: 10 mM Tris pH 7.4, 50 mM NaCl, 1 mM DTT, 1 mM EDTA, 4% glycerol; unlabeled oligo competes; protein translated in vitro; protein details: in vitro transcription/translation kit (Promega); label: labeled (standard methods)

| Sequence | binding result [1] | binding result [2] | binding result [3] |
| --- | --- | --- | --- |
| CTTTTAAAGTTAAGAGCTCAGCGAAGC / GCTTCGCTGGACTCTTAACTTTAAAAG [ANF promoter GATA4 site mutant] | no binding |  |  |
| CTTTTAAAGTTATCAGCTCAGCGAAGC / GCTTCGCTGGACTGATAACTTTAAAAG [ANF promoter GATA4 site] |  | binds more weakly | binds |
